Paper PMC9338313

Chains of the proteins cited; added tags and fusions are not shown. Lines headed by an entry give the natural chain unless they say otherwise; changes in a name come on top.
UniProt Q00613: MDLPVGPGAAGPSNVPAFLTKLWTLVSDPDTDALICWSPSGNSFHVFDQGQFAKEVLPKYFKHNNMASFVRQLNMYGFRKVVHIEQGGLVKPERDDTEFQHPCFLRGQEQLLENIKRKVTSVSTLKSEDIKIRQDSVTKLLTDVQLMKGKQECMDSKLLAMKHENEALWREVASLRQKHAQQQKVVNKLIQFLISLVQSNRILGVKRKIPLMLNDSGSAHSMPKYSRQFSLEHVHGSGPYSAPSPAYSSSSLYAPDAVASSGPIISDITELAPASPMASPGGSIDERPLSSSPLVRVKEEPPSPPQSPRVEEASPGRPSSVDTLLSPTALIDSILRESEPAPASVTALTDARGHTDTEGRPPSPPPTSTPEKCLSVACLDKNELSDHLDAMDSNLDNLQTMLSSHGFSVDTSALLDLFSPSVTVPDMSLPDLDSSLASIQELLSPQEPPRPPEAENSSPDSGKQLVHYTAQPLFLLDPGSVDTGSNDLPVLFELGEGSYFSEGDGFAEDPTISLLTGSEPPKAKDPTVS
UniProt Q9Y4A5: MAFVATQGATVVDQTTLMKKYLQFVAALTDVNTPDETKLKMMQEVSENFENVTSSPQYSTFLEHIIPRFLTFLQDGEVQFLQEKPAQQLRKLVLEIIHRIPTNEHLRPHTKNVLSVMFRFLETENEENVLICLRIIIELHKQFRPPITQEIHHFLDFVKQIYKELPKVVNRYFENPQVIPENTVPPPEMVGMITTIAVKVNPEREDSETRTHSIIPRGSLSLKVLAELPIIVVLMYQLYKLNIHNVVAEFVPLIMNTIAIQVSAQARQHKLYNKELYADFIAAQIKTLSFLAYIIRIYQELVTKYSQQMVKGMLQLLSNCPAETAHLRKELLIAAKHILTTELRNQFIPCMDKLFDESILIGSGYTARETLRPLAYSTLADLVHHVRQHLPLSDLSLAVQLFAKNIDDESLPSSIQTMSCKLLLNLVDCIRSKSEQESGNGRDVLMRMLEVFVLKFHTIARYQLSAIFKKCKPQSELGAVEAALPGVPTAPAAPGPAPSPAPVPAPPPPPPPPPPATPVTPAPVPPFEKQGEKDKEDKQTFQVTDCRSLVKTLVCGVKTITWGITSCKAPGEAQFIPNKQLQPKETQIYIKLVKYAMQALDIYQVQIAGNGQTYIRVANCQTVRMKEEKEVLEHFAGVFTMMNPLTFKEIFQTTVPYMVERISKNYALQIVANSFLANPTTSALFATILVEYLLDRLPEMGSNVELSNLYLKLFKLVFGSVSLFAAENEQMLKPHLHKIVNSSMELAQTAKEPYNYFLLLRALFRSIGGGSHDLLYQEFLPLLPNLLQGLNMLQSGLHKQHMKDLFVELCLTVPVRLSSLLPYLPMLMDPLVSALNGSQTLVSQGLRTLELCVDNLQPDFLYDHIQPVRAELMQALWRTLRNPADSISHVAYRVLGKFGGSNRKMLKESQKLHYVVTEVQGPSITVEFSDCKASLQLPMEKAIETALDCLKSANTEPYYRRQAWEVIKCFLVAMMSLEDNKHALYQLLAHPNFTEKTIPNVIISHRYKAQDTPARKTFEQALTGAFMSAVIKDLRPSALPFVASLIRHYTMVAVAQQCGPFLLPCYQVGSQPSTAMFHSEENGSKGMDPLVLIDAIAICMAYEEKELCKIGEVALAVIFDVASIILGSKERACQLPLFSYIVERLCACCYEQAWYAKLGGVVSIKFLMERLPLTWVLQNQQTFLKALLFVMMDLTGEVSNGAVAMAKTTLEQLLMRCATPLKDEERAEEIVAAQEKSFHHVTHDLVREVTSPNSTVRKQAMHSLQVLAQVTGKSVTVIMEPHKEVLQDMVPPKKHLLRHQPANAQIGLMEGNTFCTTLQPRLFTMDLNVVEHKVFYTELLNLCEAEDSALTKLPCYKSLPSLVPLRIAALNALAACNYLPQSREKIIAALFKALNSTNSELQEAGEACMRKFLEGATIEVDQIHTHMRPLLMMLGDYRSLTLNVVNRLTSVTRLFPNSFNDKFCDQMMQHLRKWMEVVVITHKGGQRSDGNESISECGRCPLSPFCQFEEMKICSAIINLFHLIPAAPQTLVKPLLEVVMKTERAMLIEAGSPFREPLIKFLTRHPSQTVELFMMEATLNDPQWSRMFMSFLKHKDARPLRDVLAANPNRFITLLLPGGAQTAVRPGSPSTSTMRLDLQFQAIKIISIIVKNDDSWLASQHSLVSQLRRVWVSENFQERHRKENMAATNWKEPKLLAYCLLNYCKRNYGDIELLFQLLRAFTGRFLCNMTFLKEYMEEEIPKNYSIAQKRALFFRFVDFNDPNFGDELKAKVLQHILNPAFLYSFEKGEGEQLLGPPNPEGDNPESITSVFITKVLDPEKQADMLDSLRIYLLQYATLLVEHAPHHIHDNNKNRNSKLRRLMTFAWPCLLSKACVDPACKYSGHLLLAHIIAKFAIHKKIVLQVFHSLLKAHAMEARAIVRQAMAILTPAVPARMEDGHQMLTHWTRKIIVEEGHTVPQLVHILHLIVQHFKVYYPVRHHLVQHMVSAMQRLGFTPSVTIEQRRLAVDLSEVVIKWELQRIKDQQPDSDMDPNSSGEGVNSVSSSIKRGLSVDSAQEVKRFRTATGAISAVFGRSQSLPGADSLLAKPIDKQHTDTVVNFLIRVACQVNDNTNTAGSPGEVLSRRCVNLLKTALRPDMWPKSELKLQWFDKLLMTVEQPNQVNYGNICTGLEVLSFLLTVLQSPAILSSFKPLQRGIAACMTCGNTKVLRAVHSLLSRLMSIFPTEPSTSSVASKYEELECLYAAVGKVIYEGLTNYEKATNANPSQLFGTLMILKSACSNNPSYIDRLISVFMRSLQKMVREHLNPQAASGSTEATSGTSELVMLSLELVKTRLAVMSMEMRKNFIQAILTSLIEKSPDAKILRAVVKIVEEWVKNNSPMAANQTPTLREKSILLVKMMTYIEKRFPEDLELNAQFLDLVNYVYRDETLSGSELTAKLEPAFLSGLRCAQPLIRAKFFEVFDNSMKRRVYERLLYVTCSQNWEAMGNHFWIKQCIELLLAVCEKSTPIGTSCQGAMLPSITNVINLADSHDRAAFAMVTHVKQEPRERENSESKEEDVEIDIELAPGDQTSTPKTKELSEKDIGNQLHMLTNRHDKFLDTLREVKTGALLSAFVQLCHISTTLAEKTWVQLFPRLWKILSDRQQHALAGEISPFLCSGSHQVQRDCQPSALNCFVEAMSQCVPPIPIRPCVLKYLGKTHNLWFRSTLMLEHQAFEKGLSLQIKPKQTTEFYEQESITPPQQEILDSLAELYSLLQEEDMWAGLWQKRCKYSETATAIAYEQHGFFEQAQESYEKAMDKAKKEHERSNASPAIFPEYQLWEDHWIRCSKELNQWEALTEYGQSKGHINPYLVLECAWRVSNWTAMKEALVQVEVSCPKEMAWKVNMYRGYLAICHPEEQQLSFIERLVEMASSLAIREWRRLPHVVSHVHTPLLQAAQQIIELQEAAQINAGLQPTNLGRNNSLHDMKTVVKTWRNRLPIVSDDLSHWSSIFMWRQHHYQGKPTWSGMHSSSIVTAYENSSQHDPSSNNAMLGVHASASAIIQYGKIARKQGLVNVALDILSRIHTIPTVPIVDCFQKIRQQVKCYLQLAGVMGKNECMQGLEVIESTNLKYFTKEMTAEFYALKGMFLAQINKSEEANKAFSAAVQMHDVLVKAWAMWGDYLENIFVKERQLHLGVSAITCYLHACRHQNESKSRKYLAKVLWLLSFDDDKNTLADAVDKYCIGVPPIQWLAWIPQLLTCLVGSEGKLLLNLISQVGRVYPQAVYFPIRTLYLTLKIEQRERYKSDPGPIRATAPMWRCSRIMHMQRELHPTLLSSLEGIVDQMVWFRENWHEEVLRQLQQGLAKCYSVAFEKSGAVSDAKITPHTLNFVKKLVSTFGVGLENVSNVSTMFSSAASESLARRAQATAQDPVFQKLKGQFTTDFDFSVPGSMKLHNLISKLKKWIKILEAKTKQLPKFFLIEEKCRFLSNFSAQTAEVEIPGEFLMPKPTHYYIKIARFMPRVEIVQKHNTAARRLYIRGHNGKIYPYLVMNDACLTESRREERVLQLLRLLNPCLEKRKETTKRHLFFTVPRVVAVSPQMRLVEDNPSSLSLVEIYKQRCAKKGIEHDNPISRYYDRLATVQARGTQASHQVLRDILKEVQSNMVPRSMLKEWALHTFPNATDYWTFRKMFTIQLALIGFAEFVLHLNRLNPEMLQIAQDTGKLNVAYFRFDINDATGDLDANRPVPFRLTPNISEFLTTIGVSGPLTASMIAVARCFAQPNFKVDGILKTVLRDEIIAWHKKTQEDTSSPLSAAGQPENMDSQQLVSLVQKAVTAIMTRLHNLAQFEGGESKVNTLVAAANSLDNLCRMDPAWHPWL
UniProt P53350: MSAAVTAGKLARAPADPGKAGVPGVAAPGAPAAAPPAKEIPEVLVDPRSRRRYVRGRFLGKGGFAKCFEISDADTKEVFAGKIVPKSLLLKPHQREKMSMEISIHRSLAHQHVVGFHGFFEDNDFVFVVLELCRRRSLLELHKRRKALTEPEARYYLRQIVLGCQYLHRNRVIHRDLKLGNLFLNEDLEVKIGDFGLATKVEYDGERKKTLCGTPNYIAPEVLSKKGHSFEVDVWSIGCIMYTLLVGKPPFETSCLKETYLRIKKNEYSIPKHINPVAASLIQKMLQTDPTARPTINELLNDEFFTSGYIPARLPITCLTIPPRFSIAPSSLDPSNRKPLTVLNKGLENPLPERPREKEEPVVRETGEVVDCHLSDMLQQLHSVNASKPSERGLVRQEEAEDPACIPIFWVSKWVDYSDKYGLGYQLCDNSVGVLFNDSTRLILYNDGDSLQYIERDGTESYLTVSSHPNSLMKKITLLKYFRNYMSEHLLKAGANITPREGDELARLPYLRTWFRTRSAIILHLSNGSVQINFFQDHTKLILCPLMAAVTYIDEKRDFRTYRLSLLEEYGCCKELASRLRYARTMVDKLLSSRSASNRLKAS
UniProt Q9NXR8: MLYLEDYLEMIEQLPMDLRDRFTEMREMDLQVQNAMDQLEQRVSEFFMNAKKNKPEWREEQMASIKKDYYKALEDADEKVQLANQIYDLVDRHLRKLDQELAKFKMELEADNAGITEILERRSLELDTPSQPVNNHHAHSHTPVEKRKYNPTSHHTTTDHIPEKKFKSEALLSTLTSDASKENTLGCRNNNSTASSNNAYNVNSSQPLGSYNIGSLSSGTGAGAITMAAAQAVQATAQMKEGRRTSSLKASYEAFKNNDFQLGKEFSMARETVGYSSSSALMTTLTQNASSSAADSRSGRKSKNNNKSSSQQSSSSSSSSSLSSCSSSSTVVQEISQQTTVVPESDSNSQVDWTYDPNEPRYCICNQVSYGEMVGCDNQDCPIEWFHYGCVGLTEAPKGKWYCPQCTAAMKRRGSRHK
UniProt Q9UPN9: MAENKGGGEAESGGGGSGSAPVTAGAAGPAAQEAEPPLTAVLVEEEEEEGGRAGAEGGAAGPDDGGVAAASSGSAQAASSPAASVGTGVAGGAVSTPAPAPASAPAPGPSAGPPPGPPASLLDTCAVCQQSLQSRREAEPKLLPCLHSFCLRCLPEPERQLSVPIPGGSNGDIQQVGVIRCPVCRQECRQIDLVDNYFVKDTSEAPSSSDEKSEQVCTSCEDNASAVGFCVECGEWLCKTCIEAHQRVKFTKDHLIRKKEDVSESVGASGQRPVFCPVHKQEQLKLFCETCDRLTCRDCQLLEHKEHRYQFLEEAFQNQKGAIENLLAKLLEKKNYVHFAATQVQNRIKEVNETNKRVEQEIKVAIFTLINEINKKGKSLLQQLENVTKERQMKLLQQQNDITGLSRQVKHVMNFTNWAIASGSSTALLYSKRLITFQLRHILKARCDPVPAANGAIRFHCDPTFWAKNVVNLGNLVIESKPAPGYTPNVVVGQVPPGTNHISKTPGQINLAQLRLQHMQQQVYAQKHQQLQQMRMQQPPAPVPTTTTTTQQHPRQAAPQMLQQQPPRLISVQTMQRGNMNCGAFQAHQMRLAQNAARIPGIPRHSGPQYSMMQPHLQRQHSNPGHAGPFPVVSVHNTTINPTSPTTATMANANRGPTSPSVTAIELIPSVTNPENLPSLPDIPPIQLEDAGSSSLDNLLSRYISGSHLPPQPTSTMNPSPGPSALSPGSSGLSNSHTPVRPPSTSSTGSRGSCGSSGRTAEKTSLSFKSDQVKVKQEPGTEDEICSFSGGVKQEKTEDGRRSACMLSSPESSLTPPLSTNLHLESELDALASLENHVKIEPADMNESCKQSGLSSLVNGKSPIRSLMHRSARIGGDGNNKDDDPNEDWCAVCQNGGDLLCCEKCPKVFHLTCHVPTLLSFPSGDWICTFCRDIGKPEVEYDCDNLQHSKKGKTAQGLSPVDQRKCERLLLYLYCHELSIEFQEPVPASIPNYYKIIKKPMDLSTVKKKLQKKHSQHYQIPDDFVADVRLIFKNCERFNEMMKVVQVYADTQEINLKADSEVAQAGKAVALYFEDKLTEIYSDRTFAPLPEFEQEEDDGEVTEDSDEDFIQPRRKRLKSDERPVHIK

Key:
[1] = molecular target: heat shock transcription factor 1 (HSF1) (human (endogenous in HeLa)) (UniProt Q00613); test: affinity purification with mass spectrometry; ChIP-MS: HeLa cells untreated or heat-shocked at 42 °C (5, 30, 60 min), fixed with 1% formaldehyde, sonicated chromatin precipitated with anti-mHSF1j serum or preimmune serum on Dynabeads Protein A, washed with RIPA wash buffer (0.25 M LiCl)
[2] = molecular target: hTRRAP (isoform 2, accession number NP_003487) tagged with 3×FLAG peptide at the C-terminus (human) (UniProt Q9Y4A5); test: affinity purification with mass spectrometry; nuclear extracts (150 mM NaCl, 1% NP-40) of HeLa-hTRRAP-3×FLAG cells untreated or heat-shocked at 42 °C for 10 or 30 min; anti-FLAG M2 affinity gel, eluted with FLAG peptide; normalised to HeLa cells

| binding [1] | binding [2] | Molecule |
| --- | --- | --- |
| binds | – | TRIM28 (from UniProt Q13263 1-835) |
| binds | – | NEK7 (from UniProt Q8TDX7 1-302) (enzyme) |
| – | binds | TIP60 (from UniProt Q92993 1-513) (enzyme) |
| – | binds | p400 (from UniProt Q96L91 1-3159) |

Further lines, the molecule ahead of its results:

| Molecule | binding [1] | binding [2] |
| --- | --- | --- |
| EP300 (p300) (from UniProt Q09472 1-2414) (enzyme) | binds | – |
| CREBBP (CBP) (from UniProt Q92793 1-2442) (enzyme) | binds | – |
| TRRAP (from UniProt Q9Y4A5 1-3859) | binds | – |
| PLK1 (from UniProt P53350 1-603) (enzyme) | binds | – |
| GAS41 (from UniProt O95619 1-227) | – | binds |
| ING3 (from UniProt Q9NXR8 1-418) | – | binds |
| tripartite motif (TRIM) 33 (from UniProt Q9UPN9 1-1127) | binds | – |
| TRIM24 (protein, UniProt O15164 1-1050) MEVAVEKAVAAAAAASAAASGGPSAAPSGENEAESRQGPDSERGGEAARLNLLDTCAVCHQNIQSRAPKLLPCLHSFCQRCLPAPQRYLMLPAPMLGSAETPPPVPAPGSPVSGSSPFATQVGVIRCPVCSQECAERHIIDNFFVKDTTEVPSSTVEKSNQVCTSCEDNAEANGFCVECVEWLCKTCIRAHQRVKFTKDHTVRQKEEVSPEAVGVTSQRPVFCPFHKKEQLKLYCETCDKLTCRDCQLLEHKEHRYQFIEEAFQNQKVIIDTLITKLMEKTKYIKFTGNQIQNRIIEVNQNQKQVEQDIKVAIFTLMVEINKKGKALLHQLESLAKDHRMKLMQQQQEVAGLSKQLEHVMHFSKWAVSSGSSTALLYSKRLITYRLRHLLRARCDASPVTNNTIQFHCDPSFWAQNIINLGSLVIEDKESQPQMPKQNPVVEQNSQPPSGLSSNQLSKFPTQISLAQLRLQHMQQQVMAQRQQVQRRPAPVGLPNPRMQGPIQQPSISHQQPPPRLINFQNHSPKPNGPVLPPHPQQLRYPPNQNIPRQAIKPNPLQMAFLAQQAIKQWQISSGQGTPSTTNSTSSTPSSPTITSAAGYDGKAFGSPMIDLSSPVGGSYNLPSLPDIDCSSTIMLDNIVRKDTNIDHGQPRPPSNRTVQSPNSSVPSPGLAGPVTMTSVHPPIRSPSASSVGSRGSSGSSSKPAGADSTHKVPVVMLEPIRIKQENSGPPENYDFPVVIVKQESDEESRPQNANYPRSILTSLLLNSSQSSTSEETVLRSDAPDSTGDQPGLHQDNSSNGKSEWLDPSQKSPLHVGETRKEDDPNEDWCAVCQNGGELLCCEKCPKVFHLSCHVPTLTNFPSGEWICTFCRDLSKPEVEYDCDAPSHNSEKKKTEGLVKLTPIDKRKCERLLLFLYCHEMSLAFQDPVPLTVPDYYKIIKNPMDLSTIKKRLQEDYSMYSKPEDFVADFRLIFQNCAEFNEPDSEVANAGIKLENYFEELLKNLYPEKRFPKPEFRNESEDNKFSDDSDDDFVQPRKKRLKSIEERQLLK | binds | – |

Results are given in words; binding and its absence hold for the method and conditions named. In cells and extracts the contact can be indirect. Here binding means that the protein was enriched with, or labelled near, the bait; the list need not be complete.
